Reference: patent publication US10407383B2, “Cyclopentene and cyclopentadiene compounds for controlling invertebrate pests” (BASF SE, priority 2014, dated 2019)
Some results were stated once for a whole list of compounds, not compound by compound.

How the values were obtained:
Assay type in all cases: in vivo
[1] = system: boll weevil (Anthonomus grandis); assay: Boll weevil (Anthonomus grandis), insect diet with eggs in 24-well plates; settings: 2500 ppm; egg and larval mortality; 5 days
Protocol: B.4 Boll Weevil (Anthonomus grandis)
For evaluating control of boll weevil (Anthonomus grandis) the test unit consisted of 24-well-microtiter plates containing an insect diet and 20-30 A. grandis eggs.
The compounds were formulated using a solution containing 75% v/v water and 25% v/v DMSO. Different concentrations of formulated compounds were sprayed onto the insect diet at 20 μl, using a custom built micro atomizer, at two replications.
After application, microtiter plates were incubated at about 23±1° C. and about 50±5% relative humidity for 5 days. Egg and larval mortality was then visually assessed.

[2] = system: Diamond Back Moth (Plutella Xylostella); assay: Diamond back moth (Plutella xylostella), cabbage leaf dip, 3rd instar larvae; settings: 500 ppm, 72 hours after treatment
Protocol: B.6 Diamond Back Moth (Plutella Xylostella)
The active compound was dissolved at the desired concentration in a mixture of 1:1 (vol:vol) distilled water:aceteone. Surfactant (Kinetic HV) was added at a rate of 0.01% (vol/vol). The test solution was prepared at the day of use.
Leaves of cabbage were dipped in test solution and air-dried. Treated leaves were placed in petri dishes lined with moist filter paper and inoculated with ten 3rd instar larvae. Mortality was recorded 72 hours after treatment. Feeding damages were also recorded using a scale of 0-100%.

[3] = system: vetch aphid (Megoura viciae); assay: Vetch aphid (Megoura viciae), contact or systemic, broad bean leaf disks in 24-well plates; settings: 2500 ppm; adult aphids on sprayed leaf disks; 5 days
Protocol: B.2 Vetch Aphid (Megoura viciae)
For evaluating control of vetch aphid (Megoura viciae) through contact or systemic means the test unit consisted of 24-well-microtiter plates containing broad bean leaf disks.
The compounds were formulated using a solution containing 75% v/v water and 25% v/v DMSO. Different concentrations of formulated compounds were sprayed onto the leaf disks at 2.5 μl, using a custom built micro atomizer, at two replications.
After application, the leaf disks were air-dried and 5-8 adult aphids placed on the leaf disks inside the microtiter plate wells. The aphids were then allowed to suck on the treated leaf disks and incubated at about 23±1° C. and about 50±5% relative humidity for 5 days. Aphid mortality and fecundity was then visually assessed.

[4] = system: tobacco budworm (Heliothis virescens); assay: Tobacco budworm (Heliothis virescens), insect diet with eggs in 96-well plates; settings: 2500 ppm; egg and larval mortality; 5 days
Protocol: B.3 Tobacco Budworm (Heliothis virescens)
For evaluating control of tobacco budworm (Heliothis virescens) the test unit consisted of 96-well-microtiter plates containing an insect diet and 15-25 H. virescens eggs.
The compounds were formulated using a solution containing 75% v/v water and 25% v/v DMSO. Different concentrations of formulated compounds were sprayed onto the insect diet at 10 μl, using a custom built micro atomizer, at two replications.
(§1) After application, microtiter plates were incubated at about 28±1° C. and about 80±5% relative humidity for 5 days. Egg and larval mortality was then visually assessed.

[5] = system: Orchid Thrips (Dichromothrips Corbetti); assay: Orchid thrips (Dichromothrips corbetti), floral-immersion technique; settings: 500 ppm; adult thrips; 72 hours after treatment
Protocol: B.7 Orchid Thrips (Dichromothrips Corbetti)
Dichromothrips corbetti adults used for bioassay were obtained from a colony maintained continuously under laboratory conditions. For testing purposes, the test compound was diluted in a 1:1 mixture of acetone:water (vol:vol), plus Kinetic HV at a rate of 0.01% v/v.
Thrips potency of each compound was evaluated by using a floral-immersion technique. All petals of individual, intact orchid flowers were dipped into treatment solution and allowed to dry in Petri dishes. Treated petals were placed into individual re-sealable plastic along with about 20 adult thrips. All test arenas were held under continuous light and a temperature of about 28° C. for duration of the assay. After 3 days, the numbers of live thrips were counted on each petal. The percent mortality was recorded 72 hours after treatment.

[6] = system: Rice Green Leafhopper (Nephotettix virescens); assay: Rice green leafhopper (Nephotettix virescens), sprayed potted rice seedlings; settings: 500 ppm; adults; after 72 hours
Protocol: B.8 Rice Green Leafhopper (Nephotettix virescens)
Rice seedlings were cleaned and washed 24 hours before spraying. The active compounds were formulated in 1:1 acetone:water (vol:vol), and 0.01% vol/vol surfactant (Kinetic HV) was added. Potted rice seedlings were sprayed with 5-6 ml test solution, air dried, covered with Mylar cages and inoculated with 10 adults. Treated rice plants were kept at about 28-29° C. and relative humidity of about 50-60%. Percent mortality was recorded after 72 hours.

[7] = system: Mediterranean fruitfly (Ceratitis capitata); assay: Mediterranean fruitfly (Ceratitis capitata), insect diet with eggs in microtiter plates; settings: 2500 ppm; egg and larval mortality; 5 days
Protocol: B.5 Mediterranean Fruitfly (Ceratitis capitata)
For evaluating control of Mediterranean fruitfly (Ceratitis capitata) the test unit consisted of microtiter plates containing an insect diet and 50-80 C. capitata eggs.
The compounds were formulated using a solution containing 75% v/v water and 25% v/v DMSO. Different concentrations of formulated compounds were sprayed onto the insect diet at 5 μl, using a custom built micro atomizer, at two replications.
as §1

[8] = system: green peach aphid (Myzus persicae); assay: Green peach aphid (Myzus persicae), systemic, 96-well plates with liquid artificial diet under membrane; settings: 2500 ppm; adult aphids on treated diet; 3 days
Excerpt: B.1 Green Peach Aphid (Myzus persicae)
For evaluating control of green peach aphid (Myzus persicae) through systemic means the test unit consisted of 96-well-microtiter plates containing liquid artificial diet under an artificial membrane.
The compounds were formulated using a solution containing 75% v/v water and 25% v/v DMSO. Different concentrations of formulated compounds were pipetted into the aphid diet, using a custom built pipetter, at two replications.
After application, 5-8 adult aphids were placed on the artificial membrane inside the microtiter plate wells. The aphids were then allowed to suck on the treated aphid diet and incubated at about 23±1° C. and about 50±5% relative humidity for 3 days. Aphid mortality and fecundity was then visually assessed.

[9] = system: Red Spider Mite (Tetranychus kanzawai); assay: Red spider mite (Tetranychus kanzawai), sprayed potted cowpea beans; settings: 500 ppm; 72 hours after treatment
Protocol: B.9 Red Spider Mite (Tetranychus kanzawai)
The active compound was dissolved at the desired concentration in a mixture of 1:1 (vol:vol) distilled water:acetone. Surfactant (Kinetic HV) was added at a rate of 0.01% (vol/vol). The test solution was prepared at the day of use.
Potted cowpea beans of 4-5 days of age were cleaned with tap water and sprayed with 1-2 ml of the test solution using air driven hand atomizer. The treated plants were allowed to air dry and afterwards inoculated with 30 or more mites by clipping a cassava leaf section from rearing population. Treated plants were placed inside a holding room at about 25-27° C. and about 50-60% relative humidity. Percent mortality was assessed 72 hours after treatment.

Measured: mortality in comparison with untreated controls

O=C(NCc1ncccn1)c1ccc(C2=CC(c3cc(Cl)cc(Cl)c3)(C(F)(F)F)CC2)cc1Cl (centres unmarked) [Compound 1-3]
not listed: [9]
at least 75%: all other assays above

C=CCNC(=O)c1ccc(C2=CC(c3cc(Cl)cc(Cl)c3)(C(F)(F)F)CC2)cc1Cl (centres unmarked) [Compound 1-4]
not listed: [6]
at least 75%: all other assays above

O=C(NCC(F)(F)F)c1ccc(C2=CC(c3cc(Cl)cc(Cl)c3)(C(F)(F)F)CC2)cc1Cl (centres unmarked) [Compound 1-5]
not listed: [9]
at least 75%: all other assays above

O=C(NNc1ncccn1)c1ccc(C2=CC(c3cc(Cl)cc(Cl)c3)(C(F)(F)F)CC2)cc1Cl (centres unmarked) [Compound 1-7]
not listed: [9]
at least 75%: all other assays above

O=C(NCC1CC1)c1ccc(C2=CC(c3cc(Cl)cc(Cl)c3)(C(F)(F)F)CC2)cc1Cl (centres unmarked) [Compound 1-8]
at least 75%: all assays above

O=C(NC1CC1)c1ccc(C2=CC(c3cc(Cl)cc(Cl)c3)(C(F)(F)F)CC2)cc1Cl (centres unmarked) [Compound 1-10]
not listed: [9]
at least 75%: all other assays above

O=C(NCc1ccccn1)c1ccc(C2=CC(c3cc(Cl)cc(Cl)c3)(C(F)(F)F)C=C2)cc1Cl (centres unmarked) [Compound 2-5]
not listed: [7]
at least 75%: all other assays above

O=C(NNc1ncccn1)c1ccc(C2=CC(c3cc(Cl)cc(Cl)c3)(C(F)(F)F)C=C2)cc1Cl (centres unmarked) [Compound 2-6]
not listed: [9]
at least 75%: all other assays above

C=CCNC(=O)c1ccc(C2=CCC(c3cc(Cl)cc(Cl)c3)(C(F)(F)F)C2)cc1Cl (centres unmarked) [Compound 3-3]
not listed: [9]
at least 75%: all other assays above

C#CCNC(=O)c1ccc(C2=CCC(c3cc(Cl)cc(Cl)c3)(C(F)(F)F)C2)cc1Cl (centres unmarked) [Compound 3-5]
not listed: [9]
at least 75%: all other assays above

O=C(NCc1ncccn1)c1ccc(C2=CCC(c3cc(Cl)cc(Cl)c3)(C(F)(F)F)C2)cc1Cl (centres unmarked) [Compound 3-7]
not listed: [9]
at least 75%: all other assays above
